The assay concerns the target T1, ClC-7 (Rattus norvegicus, UniProt P51799).
T1 construct: gene Clcn7; wt rat ClC-7 with C-terminal EGFP fusion; with Ostm1 (mouse)
T1 sequence (P51799 1-803): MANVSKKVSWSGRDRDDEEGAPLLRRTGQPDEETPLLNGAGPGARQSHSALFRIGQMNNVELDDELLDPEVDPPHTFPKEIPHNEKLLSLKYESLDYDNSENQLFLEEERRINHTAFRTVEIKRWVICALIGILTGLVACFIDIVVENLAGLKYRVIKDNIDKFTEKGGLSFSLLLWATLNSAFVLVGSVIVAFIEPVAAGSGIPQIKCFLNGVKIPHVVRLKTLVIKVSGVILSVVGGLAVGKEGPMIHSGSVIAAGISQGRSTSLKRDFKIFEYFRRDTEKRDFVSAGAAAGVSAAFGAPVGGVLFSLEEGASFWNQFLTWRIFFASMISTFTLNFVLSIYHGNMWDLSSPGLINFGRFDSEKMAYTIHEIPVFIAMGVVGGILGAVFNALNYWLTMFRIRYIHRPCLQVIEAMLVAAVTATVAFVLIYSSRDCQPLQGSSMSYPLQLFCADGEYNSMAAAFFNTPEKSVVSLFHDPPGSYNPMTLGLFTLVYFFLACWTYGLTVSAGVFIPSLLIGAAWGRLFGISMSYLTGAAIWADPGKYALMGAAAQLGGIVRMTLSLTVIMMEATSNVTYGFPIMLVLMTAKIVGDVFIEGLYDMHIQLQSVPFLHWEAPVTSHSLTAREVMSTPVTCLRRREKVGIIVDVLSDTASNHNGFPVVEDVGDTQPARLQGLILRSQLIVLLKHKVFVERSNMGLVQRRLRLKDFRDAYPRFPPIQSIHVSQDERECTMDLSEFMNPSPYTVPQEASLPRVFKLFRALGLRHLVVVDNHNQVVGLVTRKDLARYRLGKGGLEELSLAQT
T1 sequence (Q8BGT0 35-338 partner): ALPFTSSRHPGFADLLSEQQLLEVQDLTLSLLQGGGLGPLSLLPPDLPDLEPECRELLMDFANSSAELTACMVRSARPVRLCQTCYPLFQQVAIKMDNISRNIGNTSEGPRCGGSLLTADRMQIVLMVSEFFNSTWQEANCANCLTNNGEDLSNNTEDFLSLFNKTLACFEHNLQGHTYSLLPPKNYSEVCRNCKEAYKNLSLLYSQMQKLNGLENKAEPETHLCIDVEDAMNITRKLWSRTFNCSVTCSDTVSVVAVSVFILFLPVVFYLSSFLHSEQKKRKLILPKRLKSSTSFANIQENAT
In words: SSM-based electrophysiology on lysosomal membrane fraction of CHO cells, […] NaCl jump. The class given is biochemical.

In paper PMC2935355, “The G215R Mutation in the Cl^−/H^+-Antiporter ClC-7 Found in ADO II Osteopetrosis Does Not Abolish Function but Causes a Severe Trafficking Defect” (PLoS ONE, 2010) one finds IC50 data, which are given here for one compound.

`NS(=O)(=O)c1cc(C(=O)O)c(NCc2ccco2)cc1Cl` [compound 4, Furosemide] showed an IC50 of 650 µM.
